Assay results taken from PubChem BioAssay (EPA / NIEHS).
Where “and” joins values, the source holds several entries; their conditions need not be identical. Equal values may be shown once. The inconclusive results got no clear call from the source; some entries with a clear call stand among them for comparison. For some of these results: Potencies beside an inconclusive call are fits to weak or partial responses and may not hold up. Calls of active or inactive are those of the source. The calls were made as follows: active = hit-call score of the fitted dose curve at least 0.9, where 1 is the maximum; inconclusive = response in the unintended direction; inactive = score below 0.9.

The chains behind the UniProt entries cited, without tags or fusion partners. Where a name states a change or a piece, a line headed by the entry shows the natural chain unless it says otherwise.
UniProt O15379: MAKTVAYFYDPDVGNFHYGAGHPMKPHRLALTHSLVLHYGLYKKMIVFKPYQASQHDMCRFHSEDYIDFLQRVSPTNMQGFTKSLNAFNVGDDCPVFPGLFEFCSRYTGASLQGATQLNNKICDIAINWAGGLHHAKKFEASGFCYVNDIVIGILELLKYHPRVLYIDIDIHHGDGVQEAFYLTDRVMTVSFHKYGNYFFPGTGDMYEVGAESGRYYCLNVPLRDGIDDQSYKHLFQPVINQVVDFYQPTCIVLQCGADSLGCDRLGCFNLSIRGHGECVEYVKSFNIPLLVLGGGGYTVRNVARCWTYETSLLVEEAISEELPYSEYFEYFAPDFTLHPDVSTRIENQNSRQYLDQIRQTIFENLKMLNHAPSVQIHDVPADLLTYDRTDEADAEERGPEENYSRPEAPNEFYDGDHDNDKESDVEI
UniProt P13945: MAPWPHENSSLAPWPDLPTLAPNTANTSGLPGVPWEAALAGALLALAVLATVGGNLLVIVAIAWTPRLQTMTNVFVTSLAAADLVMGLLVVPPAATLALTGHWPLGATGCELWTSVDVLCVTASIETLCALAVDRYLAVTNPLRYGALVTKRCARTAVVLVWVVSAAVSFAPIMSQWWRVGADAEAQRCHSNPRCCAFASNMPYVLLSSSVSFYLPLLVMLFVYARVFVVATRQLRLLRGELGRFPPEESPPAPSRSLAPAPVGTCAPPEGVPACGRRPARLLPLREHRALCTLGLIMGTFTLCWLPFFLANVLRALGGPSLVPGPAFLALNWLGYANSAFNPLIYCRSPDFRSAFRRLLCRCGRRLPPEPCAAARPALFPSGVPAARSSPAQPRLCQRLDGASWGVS
UniProt P10275: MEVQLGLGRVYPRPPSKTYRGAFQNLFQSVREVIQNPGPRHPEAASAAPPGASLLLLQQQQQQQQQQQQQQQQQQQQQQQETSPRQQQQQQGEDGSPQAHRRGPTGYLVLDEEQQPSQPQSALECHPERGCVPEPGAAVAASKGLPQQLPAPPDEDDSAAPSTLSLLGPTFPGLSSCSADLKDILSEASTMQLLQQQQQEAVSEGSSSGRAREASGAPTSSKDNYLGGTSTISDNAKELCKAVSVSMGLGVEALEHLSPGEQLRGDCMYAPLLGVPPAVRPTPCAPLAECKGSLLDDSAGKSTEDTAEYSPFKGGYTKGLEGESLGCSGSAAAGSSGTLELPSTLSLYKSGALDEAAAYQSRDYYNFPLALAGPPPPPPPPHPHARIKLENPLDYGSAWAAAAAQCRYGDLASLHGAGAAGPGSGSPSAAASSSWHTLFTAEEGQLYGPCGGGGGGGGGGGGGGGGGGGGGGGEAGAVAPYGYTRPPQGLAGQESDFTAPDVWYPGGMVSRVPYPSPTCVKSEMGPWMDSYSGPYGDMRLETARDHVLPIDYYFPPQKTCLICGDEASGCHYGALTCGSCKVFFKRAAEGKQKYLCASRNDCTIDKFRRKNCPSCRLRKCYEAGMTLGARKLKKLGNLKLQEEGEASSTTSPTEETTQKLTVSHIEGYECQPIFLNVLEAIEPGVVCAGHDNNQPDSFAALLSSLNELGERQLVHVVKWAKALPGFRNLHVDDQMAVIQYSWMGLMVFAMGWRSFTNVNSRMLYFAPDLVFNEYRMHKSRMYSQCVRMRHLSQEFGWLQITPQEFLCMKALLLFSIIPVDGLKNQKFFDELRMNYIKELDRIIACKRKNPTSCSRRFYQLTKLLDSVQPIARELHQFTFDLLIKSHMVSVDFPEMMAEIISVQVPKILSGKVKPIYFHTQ
UniProt P21917, whole entry, looked up: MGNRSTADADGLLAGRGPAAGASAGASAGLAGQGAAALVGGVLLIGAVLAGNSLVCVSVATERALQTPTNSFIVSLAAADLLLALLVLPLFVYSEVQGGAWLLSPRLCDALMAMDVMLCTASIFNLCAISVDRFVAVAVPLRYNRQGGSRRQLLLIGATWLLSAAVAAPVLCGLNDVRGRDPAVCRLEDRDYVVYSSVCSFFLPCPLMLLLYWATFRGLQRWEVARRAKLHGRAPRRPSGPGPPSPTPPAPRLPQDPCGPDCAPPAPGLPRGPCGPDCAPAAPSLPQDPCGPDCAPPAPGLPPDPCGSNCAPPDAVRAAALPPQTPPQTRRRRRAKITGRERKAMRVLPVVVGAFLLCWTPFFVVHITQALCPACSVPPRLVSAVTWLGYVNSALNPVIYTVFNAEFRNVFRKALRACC
UniProt P04150: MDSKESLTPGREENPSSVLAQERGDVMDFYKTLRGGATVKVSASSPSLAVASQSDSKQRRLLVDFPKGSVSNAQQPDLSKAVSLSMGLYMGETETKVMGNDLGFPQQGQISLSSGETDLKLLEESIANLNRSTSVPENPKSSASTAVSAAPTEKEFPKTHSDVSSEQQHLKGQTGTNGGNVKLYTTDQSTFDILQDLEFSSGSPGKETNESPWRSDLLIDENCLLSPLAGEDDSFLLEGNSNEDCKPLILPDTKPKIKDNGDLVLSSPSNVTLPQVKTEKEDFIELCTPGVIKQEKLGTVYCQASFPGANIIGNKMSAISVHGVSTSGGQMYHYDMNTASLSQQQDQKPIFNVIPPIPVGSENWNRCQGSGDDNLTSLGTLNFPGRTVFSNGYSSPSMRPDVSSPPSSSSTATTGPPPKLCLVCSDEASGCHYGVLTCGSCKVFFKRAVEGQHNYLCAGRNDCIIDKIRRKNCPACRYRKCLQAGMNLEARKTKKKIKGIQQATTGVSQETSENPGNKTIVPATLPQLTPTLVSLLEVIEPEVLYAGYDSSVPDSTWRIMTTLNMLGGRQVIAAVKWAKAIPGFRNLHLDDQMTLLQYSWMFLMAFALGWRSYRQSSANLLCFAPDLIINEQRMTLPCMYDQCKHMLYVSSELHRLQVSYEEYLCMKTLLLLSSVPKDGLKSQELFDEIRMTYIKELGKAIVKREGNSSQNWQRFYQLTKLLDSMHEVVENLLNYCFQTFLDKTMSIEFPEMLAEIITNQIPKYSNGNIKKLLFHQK
UniProt P22909, whole entry, looked up: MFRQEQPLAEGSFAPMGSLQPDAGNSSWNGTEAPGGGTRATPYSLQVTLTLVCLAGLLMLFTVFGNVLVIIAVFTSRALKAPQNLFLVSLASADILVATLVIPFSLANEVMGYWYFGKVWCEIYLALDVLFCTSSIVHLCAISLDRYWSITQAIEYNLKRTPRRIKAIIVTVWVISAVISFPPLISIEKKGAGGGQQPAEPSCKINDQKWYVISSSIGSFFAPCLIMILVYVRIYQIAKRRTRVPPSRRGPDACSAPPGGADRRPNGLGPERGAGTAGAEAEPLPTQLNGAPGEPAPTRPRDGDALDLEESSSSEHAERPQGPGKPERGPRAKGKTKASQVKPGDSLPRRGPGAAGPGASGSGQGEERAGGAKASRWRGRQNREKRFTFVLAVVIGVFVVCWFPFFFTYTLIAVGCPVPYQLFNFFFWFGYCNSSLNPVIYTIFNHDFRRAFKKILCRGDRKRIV
UniProt P47898, whole entry, looked up: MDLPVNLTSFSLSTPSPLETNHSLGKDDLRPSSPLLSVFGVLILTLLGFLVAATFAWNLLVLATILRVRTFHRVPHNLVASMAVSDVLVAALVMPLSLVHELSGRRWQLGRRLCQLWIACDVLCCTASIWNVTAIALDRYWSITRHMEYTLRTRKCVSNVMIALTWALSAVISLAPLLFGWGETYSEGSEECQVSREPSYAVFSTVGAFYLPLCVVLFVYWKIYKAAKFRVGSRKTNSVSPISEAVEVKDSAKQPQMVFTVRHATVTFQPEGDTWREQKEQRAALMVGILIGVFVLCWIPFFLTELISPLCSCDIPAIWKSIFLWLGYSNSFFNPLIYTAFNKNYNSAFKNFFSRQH
UniProt Q08E50: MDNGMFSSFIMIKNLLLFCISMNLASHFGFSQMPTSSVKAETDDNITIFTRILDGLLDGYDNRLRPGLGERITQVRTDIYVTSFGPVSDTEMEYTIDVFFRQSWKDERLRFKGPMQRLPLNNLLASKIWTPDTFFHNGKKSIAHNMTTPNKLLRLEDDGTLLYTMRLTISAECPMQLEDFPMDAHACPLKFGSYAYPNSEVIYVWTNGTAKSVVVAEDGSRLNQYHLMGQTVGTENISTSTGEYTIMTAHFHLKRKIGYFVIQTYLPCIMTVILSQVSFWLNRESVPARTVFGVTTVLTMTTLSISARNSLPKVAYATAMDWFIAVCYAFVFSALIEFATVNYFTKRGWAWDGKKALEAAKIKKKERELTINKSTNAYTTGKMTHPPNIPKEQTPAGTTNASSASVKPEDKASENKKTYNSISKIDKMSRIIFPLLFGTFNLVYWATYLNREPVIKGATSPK
UniProt P29466: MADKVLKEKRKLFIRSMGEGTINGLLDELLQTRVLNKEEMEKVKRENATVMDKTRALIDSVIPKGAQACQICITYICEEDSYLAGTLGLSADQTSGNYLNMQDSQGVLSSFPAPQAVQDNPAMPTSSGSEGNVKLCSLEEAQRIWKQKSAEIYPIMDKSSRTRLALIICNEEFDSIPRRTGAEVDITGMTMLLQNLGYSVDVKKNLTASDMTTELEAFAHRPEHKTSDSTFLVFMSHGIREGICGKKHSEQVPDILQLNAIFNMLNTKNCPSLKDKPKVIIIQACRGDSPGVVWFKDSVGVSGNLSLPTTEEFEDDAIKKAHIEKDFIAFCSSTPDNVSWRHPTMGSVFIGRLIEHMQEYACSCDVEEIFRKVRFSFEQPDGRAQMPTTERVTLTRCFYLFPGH

Legend:
[1] = ATG_M_61_XSP1: Attagene TRANS-FACTORIAL Multi-Species (XSP1) HepG2 Assay for M61 Transcription Factor (Internal Marker) (AID 2283797)
Summary of the method: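 Background-control readout: reporter transcripts measured by RT-PCR and capillary electrophoresis 24 h after dosing transiently transfected HepG2 multi-reporter cells, with 3 nM 6-alpha-fluorotestosterone present. Fitted in the positive direction relative to DMSO.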

[2] = target: Nuclear receptor subfamily 1 group I member 2 (Mus musculus) (UniProt O54915); experiment: ATG_mPXR_XSP1: Attagene TRANS-FACTORIAL Multi-Species (XSP1) HepG2 Assay for mouse Pregnane X Receptor (PXR) (AID 2283803)
Summary of the method: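 Transiently transfected HepG2 cells expressing a receptor-Gal4 chimera drive a GAL4-UAS reporter; 3 nM 6-alpha-fluorotestosterone included. Reporter mRNA read 24 h post-dose by RT-PCR and capillary electrophoresis; gain of signal relative to DMSO.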

[3] = TOX21_PR_BLA_Followup_Agonist_viability: Viability Assessment in the Tox21 HEK293 Progesterone Receptor (PR) Agonism Beta-lactamase Follow-Up Assay (AID 2283935);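 also: signal loss means lower viability so actives are cytotoxic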
Summary of the method: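 Cells were plated in medium with 2% charcoal-stripped FBS and rested 6 hr. Compounds in DMSO were then added for 16 hr at 37C, followed by the FRET substrate step and CellTiter-Glo luminescence after 30 min.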

[4] = target: human Epidermal Growth Factor Receptor (EGFR), EGFR (gene 1956) (UniProt P00533); experiment: NVS_ENZ_hEGFR: NovaScreen (NVS) Enzymatic Assay for human Epidermal Growth Factor Receptor (EGFR) (AID 2283151)
Summary of the method: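 Cell-free kinase assay, fluorescence plus electrophoretic mobility shift separating substrate and product, read 1 hour after dosing; loss of signal vs DMSO. Duplicate screen at 25 uM, then concentration-response to 50 uM.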

[5] = target: Histone deacetylase 3 (Homo sapiens) (UniProt O15379); experiment: NVS_ENZ_hHDAC3: NovaScreen (NVS) Enzymatic Assay for human Histone Deacetylase 3 (HDAC3) (AID 2283163)
Summary of the method: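 Cell-free enzyme format: loss of fluorescent product after mobility-shift separation, 1 h incubation, recombinant human HDAC3. Single 25 uM duplicate screen first, then concentration series to a 50 uM top for hits; DMSO as baseline.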

[6] = target: human Adrenergic, Beta 3 Receptor (Adrb3), ADRB3 (gene 155) (UniProt P13945); experiment: NVS_GPCR_hAdrb3: NovaScreen (NVS) G Protein-Coupled Receptor Assay for human Adrenergic, Beta 3 Receptor (Adrb3) (AID 2283262)
Summary of the method: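 A cell-free filter binding assay read by scintillation counting, with displacement of a specific radioligand measured after 1 hour. The receptor source was SK-N-MC extracts (cells pretreated with isoproterenol and 8-bromo-cAMP). Compounds were first tested at 25 uM in duplicate and then in concentration series.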

[7] = tested on: Thyroperoxidase (TPO), gene 445522; experiment: CCTE_Simmons_GUA_TPO: CCTE's Guaiacol Assay for Thyroperoxidase (TPO) Inhibition, Simmons Lab (AID 2283750)
Summary of the method: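 Porcine thyroid microsomes (25 ug) in 200mM potassium phosphate, preincubated 30 s at 37C with compound (8 concentrations, 5 nM–87.5 uM) and 35mM guaiacol; 1mM H2O2 starts reaction. Absorbance change at 450nm over first 80 s; loss of signal versus DMSO, three replicates.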

[8] = target: human Androgen Receptor (AR), AR (gene 367) (UniProt P10275); experiment: ATG_hAR_XSP2: Attagene TRANS-FACTORIAL Multi-Species (XSP2) HepG2 Assay for human Androgen Receptor (AR) (AID 2283820)
Summary of the method: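 Reporter transcripts were measured by RT-PCR and capillary electrophoresis 24 h post-dosing, with gain of signal fitted against DMSO. Transiently transfected HepG2 cells expressed chimeric NR-Gal4 on GAL4-UAS reporters, with AR stimulated by 3 nM 6-alpha-fluorotestosterone and 1.5 nM norgestrel.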

[9] = TAMU_PeakParms_SingleDonor1434_Asystole: Texas A&M University (TAMU) 1.5-hr Human Induced Pluripotent Stem Cell (iPSC)-derived Cardiomyocytes Calcium (Ca+2) Flux Assay for Cardiotoxicity: Asystole (quiescence of beating) (AID 2284328)
Summary of the method: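 Average Ca2+-flux peak frequency (beats/s) was recorded in single-donor iPSC-derived cardiomyocytes after 90 min exposure (0.2–100 uM final, 0.5% DMSO). Asystole POD set as EC95 against DMSO, no preprocessing.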

[10] = target: human Dopamine Receptor D4.4 (DRD4.4), DRD4 (gene 1815) (UniProt P21917); experiment: NVS_GPCR_hDRD4.4: NovaScreen (NVS) G Protein-Coupled Receptor Assay for human Dopamine Receptor D4.4 (DRD4.4) (AID 2283264)
Summary of the method: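 Filter-binding assay with a tritiated or iodinated ligand, cell-free receptor prepared from CHO, 1 hour. Loss of bound radioactivity versus DMSO; single 25 uM duplicate screen, then concentration-response for actives.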

[11] = LTEA_HepaRG_LDH_cytotoxicity: Cytotoxicity Assessment in the Life Technologies and Expression Analysis (LTEA) Assay (AID 2283563)
Summary of the method: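 Differentiated HepaRG cells in serum-free induction medium, exposed 48 h in duplicate to 8 half-log concentrations up to 100 uM in 0.5% DMSO. Cytotoxicity from LDH measured in spent medium, fit relative to DMSO.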

[12] = target: Glucocorticoid receptor (Homo sapiens) (UniProt P04150); experiment: NVS_NR_hGR: NovaScreen (NVS) Nuclear Receptor Binding Assay for human Glucocorticoid Receptor (GR) (AID 2283363);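 also: activity is loss of specific radioligand binding signal relative to DMSO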
Summary of the method: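 Compounds first tested in duplicate at 25 uM, actives followed up in concentration series. Binding to extracted GR protein measured as competitive radioligand displacement, filter scintillation read 16 h post-dosing, normalised to DMSO.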

[13] = target: rat Adrenergic Receptor, Alpha 2 (Adra2), Non-selective Binding, Adra2a (gene 25083) (UniProt P22909); experiment: NVS_GPCR_rAdra2_NonSelective: NovaScreen (NVS) G Protein-Coupled Receptor Assay for rat Adrenergic Receptor, Alpha 2 (Adra2), Non-selective Binding (AID 2283299)
Summary of the method: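 Filter-based scintillation counting of radioligand binding to rat cortical membrane receptors, measured 1.25 hours post-dosing; loss of signal versus DMSO indicates displacement. Initial single-concentration duplicate at 25 uM, then concentration series.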

[14] = target: human Serotonin, 5-Hydroxytryptamine Receptor 5A (5HT5A), HTR5A (gene 3361) (UniProt P47898); experiment: NVS_GPCR_h5HT5A: NovaScreen (NVS) G Protein-Coupled Receptor Assay for human Serotonin, 5-Hydroxytryptamine Receptor 5A (5HT5A) (AID 2283251)
Summary of the method: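 Membranes from HEK293 cells, radioligand binding read by filtration and scintillation after 1 h. Single-concentration duplicate testing at 25 uM, then concentration-response for actives; positive-direction fitting relative to DMSO.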

[15] = target: bovine Gamma-Aminobutyric Acid Type A Receptor BDZ, alpha 5 site (GABARa5), GABRA5 (gene 523515) (UniProt Q08E50); experiment: NVS_LGIC_bGABARa5: NovaScreen (NVS) Ligand-Gated Ion Channel Assay for bovine Gamma-Aminobutyric Acid Type A Receptor BDZ, alpha 5 site (GABARa5) (AID 2283323)
Summary of the method: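 Tested first in duplicate at a single 25 uM, with hits re-run in concentration series to a 50 uM maximum. Bovine hippocampal membranes; specific radioligand displacement measured by filter scintillation counting 1 hr post-dose.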

Caspase-1 (Homo sapiens) = Caspase-1 (Homo sapiens) (UniProt P29466); experiment: NVS_ENZ_hCASP1: NovaScreen (NVS) Enzymatic Assay for human Caspase 1 (CASP1) (AID 2283132)
Summary of the method: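 Compounds were first tested in duplicate at 25 uM, with follow-up concentration series up to 50 uM. The bacterially expressed enzyme was read by fluorescence at 1 h post-dosing. Signal loss versus DMSO baseline indicates reduced enzyme activity.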

What does the source list for CC(C)(c1cc(Cl)c(O)c(Cl)c1)c1cc(Cl)c(O)c(Cl)c1?
AC50 [1]: inconclusive: 100 µM; AC50 [2]: inconclusive: 100 µM; outcome [3]: inactive

Which AC50 [4] does the source give for c1cc2ccc3cccc4ccc(c1)c2c34 here?
The AC50 was inconclusive: 26 µM.

What about the outcome [5] of the same compound?
Its outcome is “inactive”.

What about the outcome [6] of the same compound?
The outcome was “inactive”.

And the AC50 [7]?
Its AC50 is inconclusive: 250 µM.

What about the AC50 [8] of the same compound?
The AC50 was inconclusive: 2.61 µM and inconclusive: 2.9 µM.

And the outcome [9]?
The outcome was “inactive”.

With O=C(O)C(F)(F)C(F)(F)C(F)(F)C(F)(F)C(F)(F)C(F)(F)C(F)(F)C(F)(F)C(F)(F)C(F)(F)F as the compound, how does the AC50 [10] read?
The AC50 was inconclusive: 0.113 µM.

Which outcome [11] does the source give for c1ccc2c(c1)Nc1ccccc1S2 here?
Its outcome is “inactive”.

With CCCCOCC1CO1 (stereo unspecified) as the compound, how does the AC50 [12] read?
Its AC50 is inconclusive: 0.232 µM.

For C=CCCl, which AC50 [13] is on record?
Its AC50 is inconclusive: 0.183 µM.

For CC(COc1ccc(Oc2ccccc2)cc1)Oc1ccccn1 (stereo unspecified), which outcome [14] is on record?
The outcome was “inactive”.

Which outcome [15] does the source give for CNC(=O)/C=C(\C)OP(=O)(OC)OC here?
The outcome was “inactive”.

For Nc1ccc(Cl)cc1N, which AC50 (Caspase-1 (Homo sapiens)) is on record?
Its AC50 is inconclusive: 25 µM.
